# Measurements published in patent US20210361733A1, “Prevention and Treatment of SARS-CoV-2 Infection by Mentha piperita and Flos chrysanthemi Extracts alone, and their Combination” (priority 2021, published 2021).
# At least one structure is not confirmed: it was looked up by name or label, or the drawing left a doubt.
# Tested on: SARS-CoV-2
# Assay type: cell-based
compound,measurement,setting,value
CCC(CC)COC(=O)[C@H](C)N[P@](=O)(OC[C@H]1O[C@@](C#N)(c2ccc3c(N)ncnn23)[C@H](O)[C@@H]1O)Oc1ccccc1 [Remdesivir],"viral load inhibition (increasing Cq value, decreasing percent viral copy number)","reference drugs: Chloroquine phosphate 9.69 μM/mL, Remdesivir 8.297 μM/mL",viral load inhibition
same,inhibition of SARS-CoV-2,viral full entry and post entry treatment points,inhibition of SARS-CoV-2
